## Library screen at single concentrations

By UniProt entry, the sequences of proteins in these tests, tags left out. Residues count along the entry.
UniProt P9WPC5, whole entry: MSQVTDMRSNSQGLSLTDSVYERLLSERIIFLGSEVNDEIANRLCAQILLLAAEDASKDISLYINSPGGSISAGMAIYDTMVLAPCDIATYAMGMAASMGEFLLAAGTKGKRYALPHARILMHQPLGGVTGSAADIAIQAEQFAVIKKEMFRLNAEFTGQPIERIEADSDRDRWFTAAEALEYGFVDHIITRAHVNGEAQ
UniProt P9WPC3, whole entry partner: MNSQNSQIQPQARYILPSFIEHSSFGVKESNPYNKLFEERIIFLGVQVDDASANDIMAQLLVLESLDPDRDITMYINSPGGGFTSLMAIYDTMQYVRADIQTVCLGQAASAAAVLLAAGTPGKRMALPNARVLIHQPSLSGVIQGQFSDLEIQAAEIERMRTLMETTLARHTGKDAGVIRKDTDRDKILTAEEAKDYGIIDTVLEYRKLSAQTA
UniProt Q8IDJ8, 1-583: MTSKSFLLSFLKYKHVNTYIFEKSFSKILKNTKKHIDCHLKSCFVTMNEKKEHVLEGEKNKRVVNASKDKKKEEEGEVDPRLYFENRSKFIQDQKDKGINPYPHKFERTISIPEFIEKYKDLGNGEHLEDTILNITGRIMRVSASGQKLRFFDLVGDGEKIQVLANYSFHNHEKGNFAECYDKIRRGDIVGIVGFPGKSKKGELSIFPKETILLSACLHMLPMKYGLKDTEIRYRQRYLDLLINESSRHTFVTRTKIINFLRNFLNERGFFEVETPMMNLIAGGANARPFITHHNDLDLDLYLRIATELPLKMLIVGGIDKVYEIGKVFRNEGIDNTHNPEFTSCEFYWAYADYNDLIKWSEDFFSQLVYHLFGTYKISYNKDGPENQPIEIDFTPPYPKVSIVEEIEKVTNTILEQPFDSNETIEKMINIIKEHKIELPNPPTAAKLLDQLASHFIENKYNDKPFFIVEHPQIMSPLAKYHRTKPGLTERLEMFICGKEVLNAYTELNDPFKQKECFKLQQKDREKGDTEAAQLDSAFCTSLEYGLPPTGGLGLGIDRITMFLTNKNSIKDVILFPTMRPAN

Measurements from “University of Dundee, Small-Polar-MMV Screening Library” (2021), ChEMBL document CHEMBL3988442.

Results are given as percent effect. The controls that fix the scale are not given in the record; negative values are as filed. Compounds were drawn at random from those tested, without regard to their results. Two or more numbers in one place are separate tests of the same structure; such repeats can differ widely. A dash means the value is not listed here; it may have been measured.

A: 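Cell assay of Leishmania donovani living inside macrophages; the read-out is not stated. Tested at 30 µM. Direction is inferred from retests: higher values go with stronger inhibition. Of about 69,000 compounds tested this way, about 1,000 (1.5%) reached 50% or more in at least one test.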
B: 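Protease assay of ClpP1P2, read by the AMC dye that it sets free. Target: ClpP1P2, Mycobacterium tuberculosis (UniProt P9WPC5 and UniProt P9WPC3). Compounds at 50 µM. Higher reads as stronger inhibition, judged from the few compounds that gave an IC50. Most other retested compounds had strongly negative values. About 69,000 compounds were tested under these conditions; 0.015% (about 10) showed 50% or more at least once.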
C: 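Assay of Toxoplasma gondii numbers, read through their beta-galactosidase reporter with a colour substrate. Compounds at 10 µM. Higher reads as fewer parasites (inferred from which compounds were picked for retests). Of about 67,000 compounds tested this way, about 260 (0.38%) reached 50% or more in at least one test.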
D: 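Lysine-tRNA ligase, Plasmodium falciparum 3D7 (UniProt Q8IDJ8). Enzyme assay of the cytosolic lysyl-tRNA synthetase in 384-well plates, read by luminescence. Compounds at 30 µM. Direction is inferred from only a few compounds that gave an IC50; most scored high, so higher reads as stronger inhibition. Of about 69,000 compounds tested this way, about 49 (0.071%) reached 50% or more in at least one test.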

| # | structure | A | B | C | D |
|---|---|---|---|---|---|
| 1 | `CCOc1ccc(Cl)cc1C(C(=O)O)N1CCCC1` (stereo not drawn) | 23.55% | -4.878% | 0% | 9.433% |
| 2 | `O=C(C1=CCCC1)N1C[C@@H]2COC[C@]2(COCC2CC2)C1` | - | -3.196% | - | 1.012% |
| 3 | `CC(C)[C@@H]1CN(CCCOc2ccc(F)cc2)C[C@H]1NS(C)(=O)=O` | 11.52% | -1.4% | -6.547% | 6.086% |
| 4 | `Cn1cnnc1C1CCN(c2cncc(-n3cccn3)n2)CC1` | 1.533% | -69.81% | 7.194% | 16.7% |
| 5 | `Cc1ccc(NC2COC3(CCN(Cc4ccn(C)n4)CC3)C2)nn1` (stereo not drawn) | - | -0.1348% | - | 3.331% |
| 6 | `Cc1nnc(C2Cc3ccccc3CN2Cc2c(C)noc2C)o1` (stereo not drawn) | 2.822% | -53.59% | 11.93% | 0.6773% |
| 7 | `O=C(NCc1cc[nH]n1)N1CCN(c2ncccn2)CC1` | -5.873% | -35.4% | -0.6865% | 1.236% |
| 8 | `Cc1nc(C(=O)N2C[C@@H]3COC[C@]3(COCc3cccnc3)C2)cs1` | - | -5.533% | - | 7.509% |
| 9 | `Cc1noc(C)c1-c1n[nH]c2c1CN(S(=O)(=O)c1cccs1)CC2` | -18.99% | -10.72% | -9.516% | -0.3584% |
| 10 | `O=C(NCc1nc[nH]n1)c1cc(COc2cccc(F)c2)[nH]n1` | 0.07621% | -3.525% | 1.176% | 1.802% |
| 11 | `Cc1ccc(N2CC3(COCCN(Cc4cccnc4)C3)OCC2=O)s1.O=C(O)C(F)(F)F.O=C(O)C(F)(F)F` (stereo not drawn) | -2.482% | - | -3.437% | - |
| 12 | `CCN(CC(=O)N(C)C)S(=O)(=O)c1cnc2c(c1)c(C)nn2C` | 21.39% | 9.191% | -6.802% | 8.709% |
| 13 | `CCn1cc(S(=O)(=O)NC2CCCC2)cn1` | 5.196% | -7.721% | -8.872% | -0.6359% |
| 14 | `Cc1nc(CN2CCN(C3CCOC3)Cc3cccnc32)cs1.O=C(O)C(F)(F)F.O=C(O)C(F)(F)F.O=C(O)C(F)(F)F` (stereo not drawn) | -0.5848% & 4.039% | - | 0.7901% | - |
| 15 | `CN(C)c1ccc(CNc2cncc(-n3cccn3)n2)cc1` | 28.18% | 4.531% | 0.3176% | 1.495% |
| 16 | `[H][C@@]12CN(Cc3cccc(Oc4ccccc4)c3)C[C@]1(C(=O)O)CNC2=O` | 17.69% | - | -7.564% | - |
| 17 | `CCCc1cc(C(=O)N(Cc2cccnc2)C[C@@H]2CCC(=O)N2)no1` | 5.474% | -2.22% | 0.6849% | 4% |
| 18 | `O=S(=O)(C1CC1)N1CCOCC2(CCN(c3ccccn3)C2)C1` (stereo not drawn) | - | 0.5878% | - | -3.603% |
| 19 | `O=C1N(c2ccc(Br)cc2)Cc2nc(=O)[nH]n21` | 9.505% | 10.95% | 1.195% | 2.531% |
| 20 | `COc1ccc(CN2CCN(S(=O)(=O)c3cc(C(=O)O)cs3)CC2)cc1` | 15% | 10.68% | 3.95% | -1.883% |
| 21 | `O=C(NC1CCCCC1)C1CCCN(C(=O)Nc2ccccn2)C1` (stereo not drawn) | -17.34% | -0.6012% | -2.663% | 0.05656% |
| 22 | `CC/N=c1\nc(NCC)nc2n1C(O)(Nc1cc(C)ccc1C)CS2` (stereo not drawn) | -19.06% | -4.059% | 9.639% | 1.32% |
| 23 | `c1ccc(-c2nc(CCNCc3ccccn3)co2)cc1` | -22.16% | -13.69% | -8.076% | 4.036% |
| 24 | `CC[C@@H]1N(Cc2ccncc2)CCC[C@]12CCC(=O)N2CCOC.O=C(O)C(F)(F)F.O=C(O)C(F)(F)F` | -6.485% | - | 13.81% | - |
| 25 | `O=C(O)C(F)(F)F.O=C(c1ccoc1)N1CCOCC2(CCN(C3CCOCC3)C2)C1` (stereo not drawn) | -10.15% | - | 0.3835% | - |
| 26 | `Cn1c(CCNC(=O)CC[C@@H]2CCCN3CCCC[C@H]23)n[nH]c1=O` | - | -5.417% | - | 0.962% |
| 27 | `CC(SCCS(C)(=O)=O)c1nc(Cc2ccc(F)cc2)no1` (stereo not drawn) | 15.51% | -6.384% | 3.029% | -2.231% |
| 28 | `CCCN(CC(F)F)C(=O)CCc1c(C)nc2cc(O)nn2c1C` | 2.016% | 14.75% | -25.91% | 2.604% |
| 29 | `Cc1noc(C)c1-c1ccc(C2CCCN2C(=O)c2ccncn2)nc1` (stereo not drawn) | -1.909% & -4.394% | 16.85% | -25.68% | -2.435% |
| 30 | `CC(C)(C)n1cc(C#N)cc1NC(=O)CCNC(=O)c1ccco1` | 5.713% | 5.722% | -6.569% | -3.6% |
| 31 | `O=C(C1CCC2(CCN(Cc3cccnc3)CC2)CO1)N1CCCC1.O=C(O)C(F)(F)F.O=C(O)C(F)(F)F` (stereo not drawn) | 38.83% | - | 7.689% | - |
| 32 | `CN(C(=O)CCN1CCCC1=O)c1cc(C#N)c2ccccc2n1` | 8.243% | -27.55% | 15.08% | 5.119% |
| 33 | `COCCO[C@H]1CCN(C(=O)c2ccoc2C)[C@H]1Cc1cnn(C)c1` | 18.72% | 1.458% | -1.781% | 2.78% |
| 34 | `CC[C@@H]1N(Cc2cccnc2)CCC[C@]12CCC(=O)N2C.O=C(O)C(F)(F)F.O=C(O)C(F)(F)F` | 3.045% | - | -1.953% | - |
| 35 | `Cc1cc(C(=O)Nc2ccc(OCC3CCOCC3)cc2)[nH]n1` | -26.46% | -19.23% | -1.565% | -1.819% |
| 36 | `CC1CCN(C[C@H]2CN3CC[C@H]2C[C@@H]3CNC(=O)c2ccco2)CC1` | - | -4.672% | - | -1.261% |
| 37 | `Cc1nn(C)c(C)c1NC(=O)CCn1ncc2ccccc21` | -42.12% | -6.719% | 17.58% | -2.292% |
| 38 | `CCN(C(c1cccnc1)c1ccc2c(c1)CCO2)S(C)(=O)=O` (stereo not drawn) | 19.64% | -7.268% | 15.44% | 0.9261% |
| 39 | `O=C(Nc1cnccn1)[C@H]1COC[C@H]2CN(c3ncc(F)cn3)C[C@H]21` | - | 0.07588% | - | 6.487% |
| 40 | `CN(C(=O)c1cn(C)cn1)[C@@H]1CCC[C@@H](Oc2ccccc2)[C@@H]1O` | 19.87% & 8.896% | -1.657% | -46.61% | -0.9908% |
| 41 | `O=C1[C@@H]2CN(Cc3cc4ccccc4o3)C[C@]2(C(=O)O)CN1CC1CC1` | - | -1.055% | - | -1.031% |
| 42 | `COCCn1ccc(=O)c(OCC(=O)Nc2cccc(Cl)c2)c1C` | 9.366% | -3.99% | 12.94% | -11.01% |
| 43 | `CC(=O)N1CCC(C(=O)N(CC(F)F)c2cccc(Cl)c2)CC1` | -7.664% | 13.55% | -2.596% | 1.352% |
| 44 | `CC1=Nc2c(c(=O)[nH]n2C(C)C)C(c2ccc3ncccc3c2)S1` (stereo not drawn) | 10.19% | -6.694% | 0.9585% | 2.546% |
| 45 | `CC1CN(C)CCN1C(=O)Nc1nc(-c2ccc[nH]2)cs1` (stereo not drawn) | 16.64% | 2.631% | 13.14% | -3.092% |
| 46 | `CCN1CCN(c2ccc(NC(=O)CC(C)C)c(C)c2)CC1` | -0.6304% | 5.951% | 14.63% | 0.5991% |
| 47 | `CC(C)C1CN(Cc2nccn2C)CCC(=O)N1CC1CC1` (stereo not drawn) | 23.65% | 8.313% | -0.9873% | 6.915% |
| 48 | `CN(C)c1ncccc1CNS(=O)(=O)c1cc(F)cc(F)c1` | 13.05% | -7.056% | 1.571% | 0.5533% |
| 49 | `Cc1ncsc1C(=O)NCCc1cccs1` | 19.55% | -27.18% | -2.519% | 3.917% |
| 50 | `CC(=O)Nc1nc(C(=O)NC(C)c2ccc(F)c(F)c2)cs1` (stereo not drawn) | -8.828% | -6.966% | 2.779% | 14.59% |
| 51 | `O=C(O)C(F)(F)F.O=C(c1ccc2ccccc2n1)N1CCC2(CCN2c2ncccn2)C1` (stereo not drawn) | -1.746% | - | -10.45% | - |
| 52 | `O=C(c1cncs1)N1CCc2[nH]nc(Nc3ccccc3)c2C1` | 44.63% | -10.08% | 5.627% | 2.406% |
| 53 | `c1ccc(-c2nnc3sc(CCN4CCCC4)nn23)cc1` | 20% | -15.78% | 11.12% | -0.6892% |
| 54 | `Cc1cccc(CN2CCC3(CC2)NC(=O)C[C@H]3c2cnn(C)c2)n1` | - | -19.44% | - | 1.745% |
| 55 | `COc1ccc2c(ccn2CCN)c1` | 10.78% | 6.352% | -3.706% | 6.682% |
| 56 | `CC(C)(C)n1ncc2c(=O)n(CC(=O)NCc3ccco3)cnc21` | 3.74% & -6.413% | 14.38% | 12.36% | 2.614% |
| 57 | `COc1cc(C(=O)N2CCC3(CC2)Nc2ccccc2NC3=O)ccn1` | -52.24% | -9.542% | -25.22% | -0.1593% |

Some entries from above, unchanged:

| structure | A | B | C | D |
|---|---|---|---|---|
| `CC(C)[C@@H]1CN(CCCOc2ccc(F)cc2)C[C@H]1NS(C)(=O)=O` | 11.52% | -1.4% | -6.547% | 6.086% |
| `CC[C@@H]1N(Cc2ccncc2)CCC[C@]12CCC(=O)N2CCOC.O=C(O)C(F)(F)F.O=C(O)C(F)(F)F` | -6.485% | - | 13.81% | - |
| `O=C1[C@@H]2CN(Cc3cc4ccccc4o3)C[C@]2(C(=O)O)CN1CC1CC1` | - | -1.055% | - | -1.031% |
| `CN(C)c1ncccc1CNS(=O)(=O)c1cc(F)cc(F)c1` | 13.05% | -7.056% | 1.571% | 0.5533% |
| `O=C(Nc1cnccn1)[C@H]1COC[C@H]2CN(c3ncc(F)cn3)C[C@H]21` | - | 0.07588% | - | 6.487% |
| `CCOc1ccc(Cl)cc1C(C(=O)O)N1CCCC1` (stereo not drawn) | 23.55% | -4.878% | 0% | 9.433% |